# Source: the supplement of paper PMC3682954
# Where “and” joins values, the source holds several entries; their conditions need not be identical. Equal values may be shown once. Where a name gives a salt, the structure may show the parent alone. ± gives the standard deviation of the averaged measurements. The list shows a part of the results. Most values come without repeats; read them as rough.
# Test system: RAW 264.7
# Experiment: HMGB1-induced TNF-alpha production relative to HMGB1-stimulated control; higher = more TNF-alpha secretion (less inhibition)
# Conditions: stimulus: HMGB1 5 ug/ml, 18 h
# [1] = compound concentration: 1 ug/ml
SMILES,HMGB1-induced TNF-alpha production (compound concentration: 3 uM),HMGB1-induced TNF-alpha production [1]
C#CCOC(=O)C1=CCCN(C)C1 [Arecaidine propargyl ester hydrobromide],98.8%,–
CC(C)NCC(O)c1ccc(N)c(C#N)c1 (stereo unspecified) [Cimaterol],60.6%,–
CNCC(O)c1ccc(O)cc1 (stereo unspecified),77.6% and 93.3%,–
NCC(CP(=O)(O)O)c1ccc(Cl)cc1 (stereo unspecified) [Phaclofen],111%,–
CNC(C)(C)Cc1ccccc1 [Mephentermine hemisulfate],102%,–
CNC(C)(C)Cc1ccccc1,94.5%,–
CCOP(=S)(OCC)Oc1cc(C)nc(C(C)C)n1,82.6%,–
C[C@]12CCC(=O)C(O)=C1CC[C@@H]1[C@@H]2CC[C@]2(C)C(=O)CC[C@@H]12,82.7 ± 6%,–
C[C@]12CCC(=O)C(O)=C1CC[C@@H]1[C@@H]2CC[C@]2(C)C(=O)CC[C@@H]12 [Formestane],97.6 ± 20%,–
c1ccc(C2CC2)c(OCC2=NCCN2)c1 [Cirazoline hydrochloride],75.7%,–
c1ccc(C2CC2)c(OCC2=NCCN2)c1 [Cirazoline],102%,–
CCCC(=O)OCC[N+](C)(C)C [Butyrylcholine],95.1%,–
CN1[C@@H]2CC[C@H]1C[C@@H](OC(c1ccccc1)c1ccccc1N)C2 (stereo partly specified) [Aminobenztropine],90.5%,–
CCOP(=S)(OCC)Oc1nc(Cl)c(Cl)cc1Cl,66.9%,–
COP(=S)(OC)Oc1ccc(Sc2ccc(OP(=S)(OC)OC)cc2)cc1,87.1%,–
CC(C)CC1C(=O)N2CCCC2C2(O)OC(NC(=O)C3C=C4c5cccc6[nH]cc(c56)CC4N(C)C3)(C(C)C)C(=O)N12 (stereo not drawn) [alpha-Ergocryptine],–,55%
CC1=C(C2=C(C)C(=O)c3c(c(C=O)c(O)c(O)c3C(C)C)C2=O)C(=O)c2c(C=O)c(O)c(O)c(C(C)C)c2C1=O [Gossypolone],–,82.7%
C[C@@H]1O[C@@H](O[C@H]2C[C@@H](O)[C@]3(CO)[C@H]4[C@H](O)C[C@]5(C)[C@@H]([C@@H]6COC(=O)C6)CC[C@]5(O)[C@@H]4CC[C@]3(O)C2)[C@H](O)[C@H](O)[C@H]1O [Dihydroouabain],76.5%,–
"CCCN1CCO[C@@H]2c3cc(O)ccc3OC[C@H]21 (racemic) [(±)-PD 128,907 hydrochloride]",76.2%,–
"CCCN1CCO[C@@H]2c3cc(O)ccc3OC[C@H]21 [S(+)-PD 128,907 hydrochloride]",111%,–
c1ccc2c3c([nH]c2c1)CNCC3,97.5%,–

SMILES,HMGB1-induced TNF-alpha production (compound concentration: 3 uM),HMGB1-induced TNF-alpha production [1]
CCCCCCCCCCCCCCCC[n+]1ccccc1,62.1%,–
C=CCC1(C(C)CCC)C(=O)NC(=S)NC1=O (stereo unspecified),81.8%,–
O=C(O)Cc1cnc[nH]1 [Imidazole-4-acetic acid hydrochloride],84.3%,–
CNC(=O)Oc1ccccc1OC(C)C,74.8%,–
O=C(O)[C@@H]1CCN1 [L-azetidine-2-carboxylic acid],85.3%,–
NCC(O)c1cccc(O)c1 (racemic) [DL-Norphenylephrine hydrochloride],–,82.5%
CC(=O)NC1CCSC1=O (stereo unspecified),77.9%,–
CC(=O)OCC1=C(C(=O)[O-])N2C(=O)[C@@H](NC(=O)CCC[C@@H](N)C(=O)[O-])[C@H]2SC1.[Zn+2] [Cephalosporin C zinc salt],88%,–
CN1C(=O)CCS(=O)(=O)C1c1ccc(Cl)cc1 (stereo unspecified),80.7%,–
CN1C(=O)CCS(=O)(=O)C1c1ccc(Cl)cc1 (stereo unspecified) [Chlormezanone],71.7 ± 7.2%,–
C[C@]12COC(=O)C[C@@H]1CC[C@@H]1[C@@H]2CC[C@@]2(C)[C@H]1CC[C@]2(C)O [Oxandrolone],74.3%,–
CCCn1c(C)c(C(=O)c2cccc3ccccc23)c2ccccc21,90.1%,–
O=P1(N(CCCl)CCCl)NCCCO1 (stereo unspecified) [Cyclophosphamide monohydrate],95.9%,–
O=P1(N(CCCl)CCCl)NCCCO1 (stereo unspecified) [Cyclophosphamide],94.1 ± 27%,–
O=P1(N(CCCl)CCCl)NCCCO1 (stereo unspecified),82.9 ± 16%,–
c1ccc2c(c1)sc1ccccc12,81.9 ± 5.7%,–
O=C1C=CC(=O)C=C1 [p-Benzoquinone],97.3%,–
"COc1ccc2c(c1OC)C(=O)OC2C1c2cc3c(cc2CCN1C)OCO3 (single isomer, unassigned; (+)) [(+)-Hydrastine]",101%,–
O=CN1C[C@@H]2C[C@H](C1)c1cccc(=O)n1C2,–,72.8%
C=C1C[C@@H]2[C@H](CC[C@]3(C)C(=O)CC[C@@H]23)[C@@]2(C)C=CC(=O)C=C12,84.5 ± 3.7%,–
C=C1C[C@@H]2[C@H](CC[C@]3(C)C(=O)CC[C@@H]23)[C@@]2(C)C=CC(=O)C=C12 [Exemestane],91.7%,–

# As entered above.
# HMGB1-induced TNF-alpha production (compound concentration: 3 uM) with O=C(O)Cc1cnc[nH]1 [Imidazole-4-acetic acid hydrochloride] is entered as 84.3%
# HMGB1-induced TNF-alpha production (compound concentration: 3 uM) with c1ccc2c3c([nH]c2c1)CNCC3 is entered as 97.5%
# HMGB1-induced TNF-alpha production (compound concentration: 3 uM) with C[C@]12CCC(=O)C(O)=C1CC[C@@H]1[C@@H]2CC[C@]2(C)C(=O)CC[C@@H]12 is entered as 82.7 ± 6%

# (next part)

SMILES,HMGB1-induced TNF-alpha production (compound concentration: 3 uM),HMGB1-induced TNF-alpha production [1]
O=C1c2ccccc2C(=O)N1CCN1CC2CC(C1)c1cccc(=O)n1C2 (stereo unspecified),–,67.8% and 77.4%
"CC(=O)[C@H]1CC[C@H]2[C@@H]3CC[C@H]4C[C@H](O)CC[C@]4(C)[C@H]3C(=O)C[C@]12C [5alpha-Pregnan-3alpha-ol-11,20-dione]",102%,–
CC(=O)[C@H]1CC[C@H]2[C@@H]3CC[C@H]4C[C@H](O)CC[C@]4(C)[C@H]3C(=O)C[C@]12C [Alfaxalone],96.1%,–
CC(=O)c1c(O)c(C)c(O)c(Cc2c(O)c3c(c(C(=O)/C=C/c4ccccc4)c2O)OC(C)(C)C=C3)c1O [Rottlerin],261%,196%
COc1ccccc1N1CCNCC1 [1-(2-Methoxyphenyl)piperazine hydrochloride],113%,–
C=C1[C@@H](C)[C@H]2[C@H](Cc3ccccc3)NC(=O)[C@]23[C@H](OC(C)=O)/C=C/[C@@](C)(O)C(=O)[C@@H](C)C/C=C/[C@H]3[C@@H]1O,90.8%,–
O=C(O)c1cc[c]([Hg][Cl])cc1 [4-Chloromercuribenzoic acid],75.4%,–
FC(F)(F)c1cccc(N2CCNCC2)c1,101%,–
CC1=NN=C(c2ccc(N)cc2)c2cc3c(cc2C1)OCO3,88.1%,–
C[C@]12C/C(=C/O)C(=O)C[C@@H]1CC[C@@H]1[C@@H]2CC[C@@]2(C)[C@H]1CC[C@]2(C)O [Oxymetholone],106%,–
CC(C)=CCC[C@]1(C)C=Cc2c(O)c3c(c(CC=C(C)C)c2O1)O[C@]12C(=C[C@@H]4C[C@H]1C(C)(C)O[C@@]2(C/C=C(/C)C(N)=O)C4=O)C3=O,53.1%,–
CCN1CC2(COC(=O)c3ccccc3N3C(=O)CC(C)C3=O)CC[C@H](OC)[C@@]34C5C[C@@H]6[C@@H](OC)C[C@@](O)(C5[C@H]6OC)[C@](O)([C@@H](OC)C23)[C@@H]14.[O-][Cl+3]([O-])([O-])O (stereo partly specified),–,69.4%
CCCC(C)(COC(N)=O)COC(=O)NC(C)C (stereo unspecified),93.3%,–
CCCC(C)(COC(N)=O)COC(=O)NC(C)C (stereo unspecified) [Carisoprodol],92.1 ± 24%,–
CCC1(C)CC(=O)NC(=O)C1 [Bemegride],117%,–
COC(C)(C)CCC[C@H](C)C/C=C/C(C)=C/C(=O)OC(C)C,65.4 ± 18%,–
C[C@@]12C(=O)OC(=O)[C@]1(C)[C@H]1CC[C@@H]2O1,1.47%,–
C[C@@]12C(=O)OC(=O)[C@]1(C)[C@H]1CC[C@@H]2O1 [Cantharidin],41.9 ± 35%,-2.94%
C/C(O)=C(\C#N)C(=O)Nc1cc(Br)ccc1Br,109%,–
Cl[C@H]1[C@H](Cl)[C@@H](Cl)[C@@H](Cl)[C@H](Cl)[C@H]1Cl,85.1%,–
Oc1ccc(Cl)cc1Cc1cc(Cl)ccc1O,98.1%,–

SMILES,HMGB1-induced TNF-alpha production (compound concentration: 3 uM),HMGB1-induced TNF-alpha production [1]
NC(=O)OCCCc1ccccc1,92.3%,–
"NC1CCc2cc(O)c(O)cc2C1 (stereo unspecified) [6,7-ADTN hydrobromide]",91.7%,–
N[C@@H]1C[C@H]1c1ccccc1.N[C@H]1C[C@@H]1c1ccccc1 [Tranylcypromine],88.5%,–
N[C@@H]1C[C@H]1c1ccccc1.N[C@H]1C[C@@H]1c1ccccc1,94.8%,–
NC(CP(=O)(O)O)C(=O)O (racemic) [(±)-2-Amino-3-phosphonopropionic acid],93.7%,–
CN1CC2C[C@@H](C1)Cn1c2cccc1=O,–,80.3%
OC(c1ccccc1)(c1ccccc1)C1CCNCC1 [Azacyclonol],78.2%,–
CC[C@H]1CN2CC[C@H]1C[C@@H]2[C@@H](O)c1ccnc2ccccc12 [Hydrocinchonine],–,47.7%
COc1cc(N)c(Cl)cc1C(=O)NC1CN2CCC1CC2 (stereo unspecified) [Zacopride],96.3%,–
N=C(NCc1ccc(Cl)cc1)SCCCc1c[nH]cn1 [Clobenpropit],91.1%,–
C[N+]1(C)CCCC(OC(=O)C(O)(c2ccccc2)c2ccccc2)C1 (stereo unspecified) [Mepenzolate bromide],111%,–
C[N+]1(C)CCCC(OC(=O)C(O)(c2ccccc2)c2ccccc2)C1 (stereo unspecified),85%,–
C[C@@H]1CN([C@H]2CC[C@](C#N)(c3ccc(F)cc3)CC2)CC[C@]1(C(=O)O)c1ccccc1 [Levocabastine],79.5%,–
C[C@@H]1CN([C@H]2CC[C@](C#N)(c3ccc(F)cc3)CC2)CC[C@]1(C(=O)O)c1ccccc1 [Levocabastine hydrochloride],96.7%,–
"CCCC[N+]1(C)[C@@H]2C[C@@H](OC(=O)[C@H](CO)c3ccccc3)C[C@H]1[C@@H]1O[C@@H]12 (single isomer, unassigned; (-)) [(-)-Scopolamine,n-Butyl-, bromide]",99.2%,–
c1ccc2sc(C3(N4CCCCC4)CCCCC3)cc2c1 [BTCP hydrochloride],79%,–
C[N+]1(C)C2CCC1CC(OC(=O)c1c[nH]c3ccccc13)C2 (stereo unspecified) [3-Tropanylindole-3-carboxylate methiodide],102%,–
COc1cc(CC(C)N)c(OC)cc1I (racemic) [(±)-DOI hydrochloride],87.7%,–
N#C/C(=C\c1ccc(O)c(O)c1)C(N)=S [Tyrphostin 47],105%,–
CN1CC(CNC(=O)OCc2ccccc2)CC2c3cccc4c3c(cn4C)CC21 (stereo unspecified) [Metergoline phenylmethyl ester],–,72.9%
CCC1(CC)C(=O)NC(=O)NC1=O,79.6%,–
